# The exact form of at least one protein or probe is not confirmed. The comparison behind a weaker result is the experiment's own reference, which may not be listed here. At least one verdict was read from the data and is not stated in words by the source.
# Molecular target: Hfq (Escherichia coli K12) (UniProt P0A6X3)
# Experiment: smFRET
# Details: smFRET: 10 mM Tris-HCl pH 7.5, 50 mM NaCl, 50 mM KCl, 4 mM Trolox, 0.01% Nikkol, 0.8% glucose, RNasin, oxygen scavenger, recombinant protein
sequence,measurement,setting,value
GAGGUCAAACUUAUUUUUUUCGUCCAUUUCGGACGUUUUUU [model sRNA],binding result,"5 nM 1:1 complex with Hfq hexamer, label: 5' Alexa Fluor 555",binds
GGACUCUAUCGAGUCCAACAACAACAACAACAACCCCUGCAUCACCUAAACUUUACUCUACCAUCACCAGACCUCGCGCCCAGGACGACACACUUUGGACAGGACACACAGGACACAGG / TGATGGTAGAGTAAAGTTTAGGTGATGC / CCTGTGTCCTGTGTGTCCTGTCCAAAGTGTGTCGTCC [(AAC)6-Cy5-N35-S6 mRNA + 28 nt spacer ASO on DNA tether],binding result,"sRNA (N13)-Hfq, mostly transient 0.3 s, tau long 198 ± 44 s (0.22), internal Cy5 after nt 35",binds more weakly

# — publication PMC10920880
